No constants are given. Whether binding was seen depends on the method and setting. In cells and extracts the contact can be indirect. Some results given as binding are weak or reduced against the parent protein; the word gives no strength.
Biological target: TFII-I (endogenous, K562 nuclear extract) (human (endogenous in K562)) (UniProt P78347)
Assay: co-IP; K562 nuclear extracts treated with benzonase, 125 mM KCl in HENG buffer, pre-cleared with IgG beads, antibody cross-linked to protein G magnetic beads, overnight at 4°C; washes with HENG plus 300 mM KCl; western blot; IP with TFII-I antibodies and reverse IP with antibodies against the partners

Sequences of proteins named here, by UniProt entry; tags and fusion partners are left off.
UniProt P78347: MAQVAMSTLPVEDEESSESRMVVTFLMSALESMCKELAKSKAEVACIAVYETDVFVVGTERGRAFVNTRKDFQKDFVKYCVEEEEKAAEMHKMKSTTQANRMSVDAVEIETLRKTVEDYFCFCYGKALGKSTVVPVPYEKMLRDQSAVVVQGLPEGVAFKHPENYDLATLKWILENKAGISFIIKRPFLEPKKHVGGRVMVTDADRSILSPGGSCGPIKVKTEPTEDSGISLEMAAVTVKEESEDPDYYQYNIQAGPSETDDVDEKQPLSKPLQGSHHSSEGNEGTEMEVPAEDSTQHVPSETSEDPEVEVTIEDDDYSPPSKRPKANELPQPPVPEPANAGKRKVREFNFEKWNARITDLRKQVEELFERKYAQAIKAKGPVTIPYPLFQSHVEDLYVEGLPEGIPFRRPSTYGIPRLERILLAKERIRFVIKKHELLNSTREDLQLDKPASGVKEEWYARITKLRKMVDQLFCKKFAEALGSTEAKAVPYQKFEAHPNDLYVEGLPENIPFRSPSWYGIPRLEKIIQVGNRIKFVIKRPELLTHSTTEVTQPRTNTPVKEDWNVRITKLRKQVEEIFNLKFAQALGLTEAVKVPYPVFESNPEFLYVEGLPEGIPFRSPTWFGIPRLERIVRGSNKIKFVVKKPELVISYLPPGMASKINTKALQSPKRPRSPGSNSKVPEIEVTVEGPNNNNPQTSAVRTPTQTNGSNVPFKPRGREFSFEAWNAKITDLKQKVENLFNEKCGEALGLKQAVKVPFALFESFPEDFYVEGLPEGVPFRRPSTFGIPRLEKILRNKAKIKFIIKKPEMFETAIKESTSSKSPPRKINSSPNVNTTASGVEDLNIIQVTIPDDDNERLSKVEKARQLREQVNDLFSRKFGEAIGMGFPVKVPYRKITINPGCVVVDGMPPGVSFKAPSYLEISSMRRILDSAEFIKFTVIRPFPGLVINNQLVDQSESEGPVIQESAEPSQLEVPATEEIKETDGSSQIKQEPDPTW

B1: transcription elongation factor Elongin A (protein, UniProt Q14241 1-772)
chain: MAAESALQVVEKLQARLAANPDPKKLLKYLKKLSTLPITVDILAETGVGKTVNSLRKHEHVGSFARDLVAQWKKLVPVERNAEPDEQDFEKSNSRKRPRDALQKEEEMEGDYQETWKATGSRSYSPDHRQKKHRKLSELERPHKVSHGHERRDERKRCHRMSPTYSSDPESSDYGHVQSPPSCTSPHQMYVDHYRSLEEDQEPIVSHQKPGKGHSNAFQDRLGASQERHLGEPHGKGVVSQNKEHKSSHKDKRPVDAKSDEKASVVSREKSHKALSKEENRRPPSGDNAREKPPSSGVKKEKDREGSSLKKKCLPPSEAASDNHLKKPKHRDPEKAKLDKSKQGLDSFDTGKGAGDLLPKVKEKGSNNLKTPEGKVKTNLDRKSLGSLPKVEETDMEDEFEQPTMSFESYLSYDQPRKKKKKIVKTSATALGDKGLKKNDSKSTGKNLDSVQKLPKVNKTKSEKPAGADLAKLRKVPDVLPVLPDLPLPAIQANYRPLPSLELISSFQPKRKAFSSPQEEEEAGFTGRRMNSKMQVYSGSKCAYLPKMMTLHQQCIRVLKNNIDSIFEVGGVPYSVLEPVLERCTPDQLYRIEEYNHVLIEETDQLWKVHCHRDFKEERPEEYESWREMYLRLQDAREQRLRVLTKNIQFAHANKPKGRQAKMAFVNSVAKPPRDVRRRQEKFGTGGAAVPEKIKIKPAPYPMGSSHASASSISFNPSPEEPAYDGPSTSSAHLAPVVSSTVSYDPRKPTVKKIAPMMAKTIKAFKNRFSRR
- binding: binds

Reference: article PMC4081084
